Legend:
Assay type in all cases: cell-based, human
BxPC-3 cancer cell line = assay: Cell proliferation resazurin assay, BxPC-3; settings: SI = IC50 MDCK / IC50 BxPC-3
Method: (§1) The proliferation of HeLa, BxPC-3, RD, and MDCK cells was assessed using resazurin. Triplicate cultures of 1 × 10^4 cells in 100 μL of medium were incubated at 37 °C, 3% CO2, in 96-well plates. Compounds were dissolved in DMSO to form 1 × 10⁻^2 M solutions, then diluted with media and added to wells for a 24 h incubation. Following this, 20 μL of resazurin solution was added and incubated for 4 h. Absorbance was measured at 570 nm and 600 nm.
(§2) Percentage inhibition was calculated as follows:(2) I (%)=100−Abs570 nmsample−Abs600 nmsample /[…]−Abs600 nmcontrol ×100
(§3) The formula accounts for absorbance differences at 570 nm and 600 nm to determine cell viability.
(§4) The half maximal inhibitory concentration (IC50) indicated the effectiveness of the compounds on cell lines, as defined by FDA guidelines as the concentration needed for 50% inhibition in vitro. Toxicity was assessed via the median lethal concentration (LC50), the concentration causing death in 50% of juvenile daphnids, calculated using a dose–response equation via least squares fitting. All data are presented as mean ± standard deviation (SD). Statistical analyses were conducted with specialized software.

RD cancer cell line = assay: Cell proliferation resazurin assay, RD; settings: SI = IC50 MDCK / IC50 RD
Method: as §1, §2, §3, §4

HeLa cancer cell line = assay: Cell proliferation resazurin assay, HeLa; settings: SI = IC50 MDCK / IC50 HeLa
Method: as §1, §2, §3, §4

HL-60 cancer cell line = assay: Antiproliferative activity, HL-60; settings: SI = IC50 MDCK / IC50 HL-60
MCF-7 cancer cell line = assay: Cell proliferation MTT assay, MCF-7; settings: SI = IC50 MDCK / IC50 MCF-7
Method: (§5) The MTT assay, a colorimetric method, quantifies viable cells to evaluate cytotoxic effects on LNCaP, MCF-7, HepG-2, and K-562 cell lines. It measures the conversion of MTT to insoluble formazan by mitochondrial succinate dehydrogenase in active cells, reflecting cell viability. Compounds were dissolved in saline and DMSO (≤0.1%) and tested at 0.1, 1, and 10 μM concentrations, following Mosmann’s method.
(§6) Suspension cells were centrifuged, and adherent cells were trypsinized then diluted to 5 × 10⁴ cells/mL in RPMI 1640 with 10% fetal bovine serum. Subsequently, 5 × 10^3 cells in 100 μL were plated in 96-well plates and incubated for attachment. After adding compounds, cells were incubated for 24 h at 37 °C and 3% CO2. MTT reagent was introduced, and cells were monitored for formazan presence under a microscope.
(§7) Upon observing purple precipitate, detergent reagent was added, and plates were kept in the dark for 4 h. Absorbance was measured at 540 nm using a BioTek reader (Agilent, Santa Clara, CA, USA). Results, indicating percent inhibition, were calculated using the following formula:(3) I (%)=100−Abs540 nmsample /Abs540 nmcontrol ×100
(§8) IC50 values were determined as a measure of compound efficacy on cancer cell proliferation.

K-562 cancer cell line = assay: Cell proliferation MTT assay, K-562; settings: SI = IC50 MDCK / IC50 K-562
Method: as §5, §6, §7, §8

LNCaP cancer cell line = assay: Cell proliferation MTT assay, LNCaP; settings: SI = IC50 MDCK / IC50 LNCaP
Method: as §5, §6, §7, §8

HepG-2 cancer cell line = assay: Cell proliferation MTT assay, HepG-2; settings: SI = IC50 MDCK / IC50 HepG-2
Method: as §5, §6, §7, §8

Row | Structure (SMILES) | BxPc-3 SI (BxPC-3 cancer cell line) | RD SI (RD cancer cell line) | HeLa SI (HeLa cancer cell line) | HL-60 SI (HL-60 cancer cell line) | MCF-7 SI (MCF-7 cancer cell line) | K-562 SI (K-562 cancer cell line) | LNCaP SI (LNCaP cancer cell line) | HepG-2 SI (HepG-2 cancer cell line)
1 | COc1ccccc1NC(=NN=Cc1ccccn1)[S][Cu][Cl] [C1, [Cu(L^1)Cl]] | 3 | 3.0 | 0.4 | 0.010 | 0.003 | 0.005 |  | 
2 | COc1ccccc1NC(=NN=Cc1ccccn1)[S][Cu][O][N+](=O)[O-] [C2, [Cu(L^1)NO3]] | 6 | 6.0 | 0.8 | 20 | 6.0 | 1.2 | 1.3 | 1.5
3 | COc1cccc(NC(=NN=Cc2ccccn2)[S][Cu][O][N+](=O)[O-])c1 [C4, [Cu(L^2)NO3]] | 13 | 13 | 13.0 |  |  |  |  | 
4 | COc1ccc(NC(=NN=Cc2ccccn2)[S][Cu][Cl])cc1 [C5, [Cu(L^3)Cl]] | 3 | 1.4 | 1.0 |  |  |  |  | 
5 | COc1ccc(NC(=NN=Cc2ccccn2)[S][Cu][O][N+](=O)[O-])cc1 [C6, [Cu(L^3)NO3]] |  | 1.8 | 1.9 | 70 | 3.5 | 70 |  | 3.5
6 | COc1cccc(NC(=NN=C(C)c2ccccn2)[S][Cu][O][N+](=O)[O-])c1 [C7, [Cu(L^4)NO3]] | 5 | 1.8 | 9.0 |  |  |  |  | 
7 | COc1cccc(NC(=NN=C(C)c2ccccn2)[S][Cu][Cl])c1 [C8, [Cu(L^4)Cl]] | 11 | 5.5 | 11.0 |  |  |  |  | 
8 | [NH2][Pt]([NH2])([Cl])[Cl] [CDDP, cisplatin, reference compound] | 0.1 | 0.3 | 0.04 |  |  |  |  | 
9 | COc1cccc2c1C(=O)c1c(O)c3c(c(O)c1C2=O)C[C@@](O)(C(=O)CO)C[C@@H]3O[C@H]1C[C@H](N)[C@H](O)[C@H](C)O1 [DOXO, doxorubicin, reference compound] | 1.8 | 0.7 | 1.7 | 11 | 0.80 | 27 |  | 3.9

Reference: paper PMC11676775, “Novel Copper(II) Coordination Compounds Containing Pyridine Derivatives of N^4-Methoxyphenyl-Thiosemicarbazones with Selective Anticancer Activity” (Molecules, 2024)
